In this test the target is 2XFlag-Mbd3 (DOX inducible allele, Rosa26-M2RtTA+/- Col1a:TetO-2XFlag-Mbd3+/-) (UniProt Q9Z2D8). Description: affinity purification with mass spectrometry.

Chains of the proteins cited; added tags and fusions are not shown.
UniProt Q9Z2D8: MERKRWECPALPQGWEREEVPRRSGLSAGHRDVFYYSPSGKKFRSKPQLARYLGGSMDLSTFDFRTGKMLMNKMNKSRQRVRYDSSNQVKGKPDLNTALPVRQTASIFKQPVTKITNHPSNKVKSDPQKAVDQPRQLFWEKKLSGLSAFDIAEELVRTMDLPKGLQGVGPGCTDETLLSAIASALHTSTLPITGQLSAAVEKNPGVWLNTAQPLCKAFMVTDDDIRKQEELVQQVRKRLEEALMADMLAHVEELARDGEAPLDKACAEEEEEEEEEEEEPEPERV
UniProt Q8CHY6: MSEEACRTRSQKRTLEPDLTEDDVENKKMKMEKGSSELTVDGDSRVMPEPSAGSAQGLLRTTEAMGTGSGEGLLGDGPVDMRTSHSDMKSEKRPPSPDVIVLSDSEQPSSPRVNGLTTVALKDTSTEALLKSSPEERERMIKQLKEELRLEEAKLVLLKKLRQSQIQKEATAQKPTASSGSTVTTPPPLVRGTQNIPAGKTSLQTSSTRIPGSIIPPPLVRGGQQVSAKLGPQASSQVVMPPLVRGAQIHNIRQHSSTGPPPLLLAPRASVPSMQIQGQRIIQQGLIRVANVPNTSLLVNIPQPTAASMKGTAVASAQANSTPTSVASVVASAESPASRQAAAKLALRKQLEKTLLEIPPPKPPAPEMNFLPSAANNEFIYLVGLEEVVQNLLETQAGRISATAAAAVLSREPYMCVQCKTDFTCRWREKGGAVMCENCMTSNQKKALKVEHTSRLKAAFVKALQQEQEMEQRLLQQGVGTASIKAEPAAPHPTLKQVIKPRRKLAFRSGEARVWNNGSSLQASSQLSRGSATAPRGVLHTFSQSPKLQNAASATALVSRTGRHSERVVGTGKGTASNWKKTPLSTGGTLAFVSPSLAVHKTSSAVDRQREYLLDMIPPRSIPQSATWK

These are yes or no findings as the source states them, for the method shown. In cells and extracts the contact can be indirect. Here binding means that the protein was enriched with, or labelled near, the bait; the list need not be complete.

Gatad2a (from UniProt Q8CHY6 1-629): the binding result was “binds”.
